Source: US7008623 (GlaxoSmithKline, dated 2006)
No constants are given. Whether binding was seen depends on the method and setting. Some entries that bind do so weakly or less than the wild type.

Columns and labels:
[1] = biological target: T1, soluble CD23 (sCD23) (human, UniProt P06734 150-321, limits assumed); assay: ELISA, sCD23 coated on plate
T1 sequence (looked up): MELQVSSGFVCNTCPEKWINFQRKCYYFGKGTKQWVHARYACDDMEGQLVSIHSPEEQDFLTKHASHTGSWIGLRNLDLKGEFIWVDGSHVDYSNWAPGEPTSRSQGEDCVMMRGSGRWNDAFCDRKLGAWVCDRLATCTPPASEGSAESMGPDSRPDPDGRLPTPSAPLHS

[2] = biological target: T2, membrane CD23 (surface CD23 on cells, e.g. RPMI 8866 cells) (human) (UniProt P06734); assay: FACS on cells carrying membrane CD23
T2 sequence (looked up): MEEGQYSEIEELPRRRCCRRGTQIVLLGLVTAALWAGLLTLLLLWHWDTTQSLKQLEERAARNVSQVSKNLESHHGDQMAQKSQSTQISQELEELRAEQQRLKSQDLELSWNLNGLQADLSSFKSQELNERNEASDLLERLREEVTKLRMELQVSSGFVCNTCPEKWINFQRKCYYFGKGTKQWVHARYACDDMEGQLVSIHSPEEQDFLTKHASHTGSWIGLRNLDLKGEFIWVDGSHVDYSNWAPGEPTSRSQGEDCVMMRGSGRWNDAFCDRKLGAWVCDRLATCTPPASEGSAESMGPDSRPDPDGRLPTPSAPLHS

[3] = biological target: T1, soluble CD23 (sCD23); assay: ELISA, plate coated with sCD23, OD against antibody concentration
[4] = biological target: T1, soluble CD23 (sCD23); assay: ELISA, sCD23 coated on plate, COS supernatant, anti-human kappa peroxidase detection
[5] = biological target: T2, membrane CD23 (surface CD23 on cells, e.g. RPMI 8866 cells) (human); assay: flow cytometry on RPMI 8866 cells

Measured: binding

B1: chimaeric anti-CD23 antibody (murine C11 variable regions, human gamma 1 and human kappa constant regions) (antibody, human IgG1, V domains shown)
VH: EVKLEESGGGLVQPGGSMKLSCVASGFTFSGYWMSWVRQSPEKGLEWVAEIRLKSDNYATHYAESVKGKFTISRDDSKSRLYLQMNSLRAEDSGVYYCTDFIDWGQGTL
VL: DIVITQDELSNPVTSGESVSISCRSSKSLLYKDGKTYLNWFLQRPGQSPQLLMYLMSTRASGVSDRFSGSGSGTDFTLEISRVKAEDVGVYYCQQLVEYPFTFGSGTKLEIKR
notes: The VH is fused to the human IgG1 (gamma 1) constant region of Reichmann et al 1988 and the VL to the human kappa constant region of Reichmann et al 1988; It was transiently expressed in COS cells and tested as supernatant; The variable regions were amplified with signal-peptide primers, so the entries may include a leader, and no cleavage site is stated; also called chimeric CD23; chimaeric CD23 …
not listed: [5]
binds: all other assays above

B2: humanised anti-CD23 antibody (IgG1 with mutations 248 Leu to Ala and 250 Gly to Ala, human kappa) (antibody, V domains shown)
VH: EVQLVESGGGLVKPGGSLRLSCAASGFTFSGYWMSWVRQAPGKGLEWVAEIRLKSDNYATHYAESVKGKFTISRDDSKSRLYLQMNSLKTEDTAVYYCTDFIDWGQGTLVTVSS
VL: DIVMTQSPLSLPVTPGEPASISCRSSKSLLYKDGKTYLNWYLQKPGQSPQLLIYLMSTRASGVPDRFSGSGSGTDFTLKISRVEAEDVGVYYCQQLVEYPFTFGQGTKVEIKR
notes: The light chain constant region is human kappa; also called humanised CD23 IgG1m
binds: [5] | [3]
